Assay: Cyanine dye titration with carboxymethylcellulose (J-aggregate fluorescence)

## CCN1C(=Cc2sc3ccc(Cl)cc3[n+]2CC)Sc2ccc(Cl)cc21.[I-] [cyanine dye of Formula I]
20 μM and 40 μM CMC
  optimal cyanine dye concentration for fluorescence emission: 40 µM
estimated, CMC as a scaffold
  limit of detection for cyanine dye: 3 µM
  limit of quantitation for cyanine dye: 5 µM

— patent US20080044805A1, “Biopolymer-Dye Complex and Use as a Bioassay” (STC.UNM, priority 2006, published 2008)
